{
  "sequences": {"note": "Amino acid sequences for entries named in this document (tags omitted). A change or cut given only in a name is not applied to a line headed by its entry. Residues count along the entry.", "UniProt Q15116, residues 25-288": "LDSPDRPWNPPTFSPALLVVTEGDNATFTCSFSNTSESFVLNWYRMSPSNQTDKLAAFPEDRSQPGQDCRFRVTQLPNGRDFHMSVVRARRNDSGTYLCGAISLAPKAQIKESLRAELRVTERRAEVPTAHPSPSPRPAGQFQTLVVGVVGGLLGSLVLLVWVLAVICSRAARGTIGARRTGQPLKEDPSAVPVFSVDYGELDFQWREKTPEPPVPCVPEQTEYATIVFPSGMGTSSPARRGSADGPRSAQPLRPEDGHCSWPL", "UniProt P55899": "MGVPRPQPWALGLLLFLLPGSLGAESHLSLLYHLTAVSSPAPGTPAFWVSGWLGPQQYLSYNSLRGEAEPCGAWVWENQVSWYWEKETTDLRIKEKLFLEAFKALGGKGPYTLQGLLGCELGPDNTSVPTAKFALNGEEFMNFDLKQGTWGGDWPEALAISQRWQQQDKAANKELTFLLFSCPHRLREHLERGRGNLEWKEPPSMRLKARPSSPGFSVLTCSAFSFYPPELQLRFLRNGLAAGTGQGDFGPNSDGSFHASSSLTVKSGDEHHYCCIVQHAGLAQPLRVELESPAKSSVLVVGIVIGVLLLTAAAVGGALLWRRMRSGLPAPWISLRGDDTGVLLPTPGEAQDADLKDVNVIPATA"},
  "source": "patent US20230059341A1",
  "binders": {"B1": {"name": "Dostarlimab, sustained agitation, 300 rpm, 25° C., 3 weeks (antibody, human IgG4 S228P, kappa, V domains shown)", "VH": "EVQLLESGGGLVQPGGSLRLSCAASGFTFSSYDMSWVRQAPGKGLEWVSTISGGGSYTYYQDSVKGRFTISRDNSKNTLYLQMNSLRAEDTAVYYCASPYYAMDYWGQGTTVTVSS", "VL": "DIQLTQSPSFLSAYVGDRVTITCKASQDVGTAVAWYQQKPGKAPKLLIYWASTLHTGVPSRFSGSGSGTEFTLTISSLQPEDFATYYCQHYSSYPWTFGQGTKLEIKR", "modifications": "all PTM levels within analytical variability of the control"}},
  "key": {"[1]": {"target": "PD-1 protein constitutively expressed on engineered CHO K1 cells (UniProt Q15116)", "experiment": "MSD potency assay (competitive binding on PD-1 CHO K1 cells)"}, "[2]": {"target": "Neonatal Fc Receptor (FcRn) (UniProt P55899)", "experiment": "FcRn binding assay, BIACORE (SPR)"}},
  "note": "Results are given in words; binding and its absence hold for the method and conditions named. Some entries that bind do so weakly or less than the wild type.",
  "data": [
    {"binder": "B1", "values": [
      {"measurement": "binding", "setting": "[1]", "result": "binds"},
      {"measurement": "binding", "setting": "[2]", "result": "binds"}
    ]}
  ]
}
